Test [1] deals with protein kinase C-δ (human (endogenous in THP-1 and in PBMCs)) (UniProt Q05655). Kind of test: co-IP; lysates of PMA-treated THP-1 cells (150 mM NaCl, 50 mM Tris-HCl pH 7.4, 1% NP-40); IP with rabbit anti-TM antibody (or goat anti-PKCδ antibody), IgG control, protein A/G beads, 4 °C; western blot. A general note: Immunoblotting shows a protein as a band on a membrane.
For test [2] the target is unchanged. Kind of test: co-IP; lysates of human PBMCs stimulated with 150 nM PMA for 24 hours; IP with rabbit anti-TM or goat anti-PKCδ antibody, IgG controls; western blot.
The target of test [3] is Thrombomodulin (human (endogenous in THP-1 and in PBMCs)) (UniProt P07204). The test can be described thus: co-IP; lysates of PMA-treated THP-1 cells (150 mM NaCl, 50 mM Tris-HCl pH 7.4, 1% NP-40); IP with rabbit anti-TM antibody (or goat anti-PKCδ antibody), IgG control, protein A/G beads, 4 °C; western blot.
For test [4] the target is unchanged. The test can be described thus: co-IP; lysates of human PBMCs stimulated with 150 nM PMA for 24 hours; IP with rabbit anti-TM or goat anti-PKCδ antibody, IgG controls; western blot.

Sequences of proteins named here, by UniProt entry; tags and fusion partners are left off. A change or cut given only in a name is not applied to a line headed by its entry. Residues count along the entry.
UniProt Q05655: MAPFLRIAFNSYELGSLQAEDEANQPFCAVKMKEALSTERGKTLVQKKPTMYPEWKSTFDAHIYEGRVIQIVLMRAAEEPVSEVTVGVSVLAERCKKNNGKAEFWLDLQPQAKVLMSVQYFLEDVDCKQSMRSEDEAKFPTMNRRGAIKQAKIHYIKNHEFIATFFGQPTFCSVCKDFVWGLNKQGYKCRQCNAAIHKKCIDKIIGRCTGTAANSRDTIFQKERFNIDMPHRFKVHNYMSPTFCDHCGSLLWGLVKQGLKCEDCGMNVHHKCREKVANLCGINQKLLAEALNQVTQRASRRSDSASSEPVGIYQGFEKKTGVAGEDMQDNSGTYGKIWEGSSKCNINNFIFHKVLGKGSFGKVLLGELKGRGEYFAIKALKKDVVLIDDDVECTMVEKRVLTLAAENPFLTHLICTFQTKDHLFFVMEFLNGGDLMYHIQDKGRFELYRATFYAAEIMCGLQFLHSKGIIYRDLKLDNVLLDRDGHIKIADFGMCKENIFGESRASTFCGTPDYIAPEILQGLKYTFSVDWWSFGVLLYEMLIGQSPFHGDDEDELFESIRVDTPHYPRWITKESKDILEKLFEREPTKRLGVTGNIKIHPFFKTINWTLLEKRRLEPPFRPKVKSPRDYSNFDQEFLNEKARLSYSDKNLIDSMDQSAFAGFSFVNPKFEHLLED
UniProt P07204, residues 19-575: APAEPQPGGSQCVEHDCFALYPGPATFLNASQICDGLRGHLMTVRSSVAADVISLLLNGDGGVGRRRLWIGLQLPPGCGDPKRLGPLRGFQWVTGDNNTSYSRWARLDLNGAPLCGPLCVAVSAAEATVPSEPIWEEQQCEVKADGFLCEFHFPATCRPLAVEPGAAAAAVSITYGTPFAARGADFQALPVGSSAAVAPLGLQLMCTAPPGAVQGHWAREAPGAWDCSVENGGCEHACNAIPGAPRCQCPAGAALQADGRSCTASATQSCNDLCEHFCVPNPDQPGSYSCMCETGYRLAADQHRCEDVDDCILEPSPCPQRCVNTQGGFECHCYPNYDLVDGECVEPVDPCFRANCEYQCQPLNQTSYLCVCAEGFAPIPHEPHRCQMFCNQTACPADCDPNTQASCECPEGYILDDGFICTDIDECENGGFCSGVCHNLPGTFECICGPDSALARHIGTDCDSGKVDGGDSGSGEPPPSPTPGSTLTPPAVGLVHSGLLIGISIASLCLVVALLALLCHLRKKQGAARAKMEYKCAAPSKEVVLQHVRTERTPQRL
UniProt P53667: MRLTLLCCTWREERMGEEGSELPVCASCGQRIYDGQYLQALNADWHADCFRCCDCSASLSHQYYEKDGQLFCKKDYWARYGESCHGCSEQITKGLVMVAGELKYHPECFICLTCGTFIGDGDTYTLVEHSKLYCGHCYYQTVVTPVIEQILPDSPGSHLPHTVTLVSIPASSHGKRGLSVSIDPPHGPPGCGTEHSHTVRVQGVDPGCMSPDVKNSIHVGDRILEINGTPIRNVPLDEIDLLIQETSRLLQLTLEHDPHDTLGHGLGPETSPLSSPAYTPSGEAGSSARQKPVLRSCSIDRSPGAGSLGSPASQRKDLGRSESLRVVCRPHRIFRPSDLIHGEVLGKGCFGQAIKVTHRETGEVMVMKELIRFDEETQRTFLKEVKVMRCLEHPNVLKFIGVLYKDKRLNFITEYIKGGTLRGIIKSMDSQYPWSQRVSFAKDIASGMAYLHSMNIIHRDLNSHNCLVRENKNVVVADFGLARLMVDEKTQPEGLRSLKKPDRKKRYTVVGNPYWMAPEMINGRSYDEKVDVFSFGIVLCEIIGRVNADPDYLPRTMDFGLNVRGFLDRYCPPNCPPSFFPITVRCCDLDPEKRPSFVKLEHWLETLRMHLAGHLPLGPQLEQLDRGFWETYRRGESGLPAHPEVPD
UniProt Q14289: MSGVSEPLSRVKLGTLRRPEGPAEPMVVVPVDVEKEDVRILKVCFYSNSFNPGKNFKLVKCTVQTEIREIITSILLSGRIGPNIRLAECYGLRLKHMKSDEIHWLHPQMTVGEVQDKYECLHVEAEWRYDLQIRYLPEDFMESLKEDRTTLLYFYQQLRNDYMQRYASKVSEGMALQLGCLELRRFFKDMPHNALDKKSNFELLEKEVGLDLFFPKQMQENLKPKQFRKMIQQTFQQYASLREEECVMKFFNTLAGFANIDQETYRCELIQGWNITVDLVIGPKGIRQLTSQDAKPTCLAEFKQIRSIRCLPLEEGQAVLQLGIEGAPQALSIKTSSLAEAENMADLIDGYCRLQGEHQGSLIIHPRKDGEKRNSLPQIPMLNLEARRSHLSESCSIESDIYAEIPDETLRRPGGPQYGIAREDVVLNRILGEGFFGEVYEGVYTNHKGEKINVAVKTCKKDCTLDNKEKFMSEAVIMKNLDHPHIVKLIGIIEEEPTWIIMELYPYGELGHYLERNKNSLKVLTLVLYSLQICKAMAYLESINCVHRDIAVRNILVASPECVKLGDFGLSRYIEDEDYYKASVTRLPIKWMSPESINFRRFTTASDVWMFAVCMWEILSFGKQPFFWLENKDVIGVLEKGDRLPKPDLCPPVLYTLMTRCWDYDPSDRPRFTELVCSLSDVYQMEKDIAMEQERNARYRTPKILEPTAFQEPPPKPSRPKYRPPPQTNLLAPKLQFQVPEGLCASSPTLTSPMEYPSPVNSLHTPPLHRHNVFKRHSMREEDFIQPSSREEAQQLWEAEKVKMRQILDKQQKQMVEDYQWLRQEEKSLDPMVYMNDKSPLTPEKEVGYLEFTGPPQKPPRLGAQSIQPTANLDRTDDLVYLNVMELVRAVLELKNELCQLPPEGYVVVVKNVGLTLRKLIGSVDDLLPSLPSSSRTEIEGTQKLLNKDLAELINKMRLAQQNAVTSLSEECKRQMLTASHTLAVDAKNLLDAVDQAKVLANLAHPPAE
UniProt P49023: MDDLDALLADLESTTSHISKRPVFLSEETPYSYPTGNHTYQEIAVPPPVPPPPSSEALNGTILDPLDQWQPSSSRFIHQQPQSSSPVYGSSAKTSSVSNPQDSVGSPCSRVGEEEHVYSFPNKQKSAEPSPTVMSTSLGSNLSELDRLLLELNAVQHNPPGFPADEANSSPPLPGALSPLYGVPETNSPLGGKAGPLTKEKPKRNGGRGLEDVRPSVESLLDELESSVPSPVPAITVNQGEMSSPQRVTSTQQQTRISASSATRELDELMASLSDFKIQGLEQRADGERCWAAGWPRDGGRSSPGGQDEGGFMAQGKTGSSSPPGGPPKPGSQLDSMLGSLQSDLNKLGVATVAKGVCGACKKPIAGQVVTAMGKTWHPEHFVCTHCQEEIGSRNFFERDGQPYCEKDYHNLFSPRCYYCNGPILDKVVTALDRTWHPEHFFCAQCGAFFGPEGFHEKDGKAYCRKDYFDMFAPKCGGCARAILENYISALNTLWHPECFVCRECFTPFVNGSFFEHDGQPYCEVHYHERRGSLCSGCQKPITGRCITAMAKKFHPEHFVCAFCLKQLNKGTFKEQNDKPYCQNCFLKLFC

These are yes or no findings as the source states them, for the method shown. Binding seen in cells or lysates may run through a third protein. Some binding calls cover weakened binding; strength is not graded here.

On to “Thrombomodulin (from UniProt P07204 19-575)”, for which the binding result in test [1] and in test [2] was “binds” each time.

Consider “LIM Kinase 1 (from UniProt P53667 1-647) (enzyme)”, for which the binding result in test [3] is on record as “binds”.

As to “PYK2 (from UniProt Q14289 1-1009) (enzyme)”, in test [3], the binding result is “binds”.

For the substance paxillin (from UniProt P49023 1-591), in test [3], the binding entry is “binds”.

Take “protein kinase C-δ (from UniProt Q05655 1-676) (enzyme)”: the binding entry in test [3] and in test [4] was “binds” in each case.

For the origin of these results see paper PMC5133669.
